These results are taken from publication doi:10.1101/2025.10.09.681383.

Sequences of proteins named here, by UniProt entry; tags and fusion partners are left off. Residues count along the entry.
UniProt P70302, residues 23-685: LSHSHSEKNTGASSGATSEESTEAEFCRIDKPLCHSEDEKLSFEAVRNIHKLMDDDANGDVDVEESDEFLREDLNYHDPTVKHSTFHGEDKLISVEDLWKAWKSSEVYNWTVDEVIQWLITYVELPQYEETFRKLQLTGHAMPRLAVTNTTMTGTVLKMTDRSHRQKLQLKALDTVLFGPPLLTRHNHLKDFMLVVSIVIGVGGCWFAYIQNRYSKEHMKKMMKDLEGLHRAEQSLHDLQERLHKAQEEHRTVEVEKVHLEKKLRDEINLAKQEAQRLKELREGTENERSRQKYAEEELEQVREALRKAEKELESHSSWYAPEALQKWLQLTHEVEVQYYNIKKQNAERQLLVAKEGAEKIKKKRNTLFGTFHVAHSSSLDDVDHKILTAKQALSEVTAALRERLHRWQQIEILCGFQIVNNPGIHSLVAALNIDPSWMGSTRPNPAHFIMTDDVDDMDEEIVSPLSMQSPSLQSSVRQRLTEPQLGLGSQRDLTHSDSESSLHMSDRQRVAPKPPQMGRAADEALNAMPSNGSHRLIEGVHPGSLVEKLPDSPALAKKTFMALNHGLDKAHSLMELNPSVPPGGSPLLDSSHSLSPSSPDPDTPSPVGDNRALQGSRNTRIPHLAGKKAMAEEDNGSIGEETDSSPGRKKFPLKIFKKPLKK

Results are given in words; binding and its absence hold for the method and conditions named. Binding seen in cells or lysates may run through a third protein. Some results given as binding are weak or reduced against the parent protein; the word gives no strength.

The target of assay [1] is T1, DHHC21 (wild type) (mouse (endogenous in spleen)) (UniProt Q9D270).
T1 sequence: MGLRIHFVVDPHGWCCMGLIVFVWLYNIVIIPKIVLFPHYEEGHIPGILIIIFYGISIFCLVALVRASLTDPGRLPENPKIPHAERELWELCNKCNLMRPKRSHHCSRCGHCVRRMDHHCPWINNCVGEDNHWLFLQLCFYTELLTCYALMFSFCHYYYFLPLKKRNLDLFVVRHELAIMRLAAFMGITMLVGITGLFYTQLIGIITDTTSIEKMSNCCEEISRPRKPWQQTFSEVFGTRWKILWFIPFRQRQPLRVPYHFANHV
Kind of assay: co-IP; spleen lysates (1 mg; 1% dodecyl-ß-D-maltoside in DPBS with protease inhibitors) of WT and depilated mice, anti-DHHC21 antibody overnight at 4 °C, protein A agarose, Western blot for STIM1.

In assay [2] the target is T2, ΔF233 DHHC21 (depilated mutant) (mouse (endogenous in spleen)) (UniProt Q9D270).
T2 sequence: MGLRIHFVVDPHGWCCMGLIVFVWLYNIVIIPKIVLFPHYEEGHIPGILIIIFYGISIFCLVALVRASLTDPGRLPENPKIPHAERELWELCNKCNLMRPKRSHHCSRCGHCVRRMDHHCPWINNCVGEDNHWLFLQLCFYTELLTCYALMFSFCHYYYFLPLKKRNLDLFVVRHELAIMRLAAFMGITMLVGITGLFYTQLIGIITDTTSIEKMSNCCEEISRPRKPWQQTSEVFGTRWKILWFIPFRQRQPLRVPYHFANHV
The assay is described as above.

“Stromal Interaction Molecule 1 (STIM1) (from UniProt P70302 23-685)”: the binding result in assay [1] and in assay [2] was “binds” each time.
